# Measurements taken from PubChem BioAssay AID1259354 (Paczesny and Yang Labs, IUPUI and University of Michigan, 2018).
# Chains of the proteins cited; added tags and fusions are not shown. Lines headed by an entry give the natural chain unless they say otherwise; changes in a name come on top.
# UniProt Q01638: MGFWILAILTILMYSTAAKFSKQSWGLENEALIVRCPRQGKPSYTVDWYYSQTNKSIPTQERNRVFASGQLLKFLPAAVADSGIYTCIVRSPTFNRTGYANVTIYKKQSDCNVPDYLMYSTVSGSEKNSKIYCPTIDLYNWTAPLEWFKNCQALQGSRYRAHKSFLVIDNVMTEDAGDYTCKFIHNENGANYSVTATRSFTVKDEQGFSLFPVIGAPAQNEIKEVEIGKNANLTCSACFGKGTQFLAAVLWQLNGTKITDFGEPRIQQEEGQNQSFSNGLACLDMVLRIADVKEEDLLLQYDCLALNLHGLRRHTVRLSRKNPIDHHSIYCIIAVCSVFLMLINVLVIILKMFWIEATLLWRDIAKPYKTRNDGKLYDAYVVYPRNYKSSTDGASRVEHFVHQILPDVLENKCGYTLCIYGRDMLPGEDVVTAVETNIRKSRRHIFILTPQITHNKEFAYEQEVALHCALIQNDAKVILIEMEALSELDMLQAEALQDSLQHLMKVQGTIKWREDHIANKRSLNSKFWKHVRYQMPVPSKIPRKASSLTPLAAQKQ
# The campaign covered roughly 78,000 compounds. About 1,800 (2.3%) were called active. The shares of active, inactive and inconclusive entries below differ from those in the screen. No stated cut-off is given here; in the data, active means inhibition above about 30%; inconclusive means mostly about 10% to 28%; inactive means weaker than that. Residues, ends and D or L forms follow the SMILES beside them.
# Molecular target: Interleukin-1 receptor-like 1 (Homo sapiens) (UniProt Q01638)
# Assay: blocks human ST2 binding to IL-33, primary screen, biochemical, AlphaLISA (AID 1259354)
# Settings: AlphaLISA ST2-Fc/biotin-IL-33 interaction, 1 h; at 17 µM, active compounds read high
row,SMILES,inhibition
1,CC(=O)c1cc(CC(=O)NCc2ccc(F)cc2F)cs1,inconclusive: 16%
2,Cc1cccc(N2CCN(Cc3cc([N+](=O)[O-])ccc3O)CC2)c1C,inconclusive: 19%
3,COc1cc(F)ccc1-c1c(-c2ccccc2)ncn1CCCN1CCCC1=O,inconclusive: 19%
4,CCCc1cc(CN(C)C(=O)CC2(c3ccccc3)CC(=O)N(Cc3cccs3)C2=O)[nH]n1 (centres undefined),inconclusive: 11%
5,Oc1ccc(-c2ncc(Cl)cn2)cc1,inconclusive: 11%
6,CCOC(=O)C(C)Oc1ccc2c(-c3ccccc3)cc(=O)oc2c1C (centres undefined),inconclusive: 15%
7,CCOC(=O)C1(CCCc2ccccc2)CCN(C(=O)/C=C/c2cnn(C)c2)CC1,inconclusive: 11%
8,C=C1C(=O)O[C@@H]2C[C@@]3(C)C[C@@H](O)C[C@H](C)C3=C[C@H]12,inconclusive: 15%
9,COc1ccc2oc(CNC(=O)c3cc(CC(C)C)[nH]n3)nc2c1,inconclusive: 11%
10,COc1cc(OC)c2c(c1CC=C(C)C)O[C@H](c1ccccc1)CC2=O,inactive
11,O=C1CC(C(=O)N2CCn3nc(C(=O)NC4CC4)cc3C2)c2ccccc2N1 (centres undefined),inconclusive: 14%
12,COC(=O)[C@@H]1Cc2ncn(C(C)C)c2CN1C(=O)CC(C)(C)C,inconclusive: 19%
13,Nc1ccc(Oc2ccc(N)c(N)c2)cc1,active: 44%
14,CCc1c(C(=O)N2CCC3(CC2)CNC(=O)C3)[nH]c2ccccc12,inconclusive: 11%
15,Fc1ccccc1-c1nnc([C@H]2CCN(Cc3ncc[nH]3)C2)o1,inconclusive: 10%
16,COc1cccc(C(=O)NC(c2ccco2)c2cc(Cl)c3cccnc3c2O)c1 (centres undefined),inactive
17,COc1ccc(-c2noc([C@@H]3C[C@H](NC(=O)CCC(=O)O)CN3C)n2)cc1,active: 30%
18,CCCc1ccc(OCC(O)CN2CCN(C)CC2)cc1 (centres undefined),inconclusive: 12%
19,O=C(C#Cc1ccccc1)c1cccc([N+](=O)[O-])c1,inconclusive: 29%
20,COc1ccc(NC(=O)N[C@H]2CO[C@H]3[C@@H]2OC[C@H]3OC)cc1,inconclusive: 22%
21,CN1CCN2CCN(S(=O)(=O)N3CCCC3)CC2C1=O (centres undefined),inconclusive: 12%
22,CC(C)CN1CC23C=CC(O2)C(C(=O)OC(C)C)C3C1=O (centres undefined),inconclusive: 11%
23,COC(=O)c1nc2n(n1)C(c1ccc(Br)cc1)C(C(=O)OC1CCCCC1)=C(C)N2 (centres undefined),inactive
24,O=C1NC(=O)/C(=C\c2cc(Br)ccc2OCc2ccc(F)cc2)S1,inconclusive: 20%

row,SMILES,inhibition
1,COc1ccc(-c2noc([C@@H]3CCCN3Cc3cccs3)n2)cn1,inconclusive: 26%
2,Cc1cc(C(=O)N2CCN(c3ccccc3)CC2)ccc1[N+](=O)[O-],inconclusive: 19%
3,O=C(Nc1c[nH]c(=O)[nH]c1=O)c1ccc(Oc2ccc(C(=O)Nc3c[nH]c(=O)[nH]c3=O)cc2)cc1,active: 36%
4,Cn1c(=O)c(N)c2c3c(cccc31)C(=O)c1ccccc1-2,active: 31%
5,CCOC(=O)N1CCC(NC(C)c2ccccc2-n2cccn2)CC1 (centres undefined),inconclusive: 16%
6,Cc1ccccc1Cc1c(C)nc2nc(SCC(=O)N3CCCC3)nn2c1C,inactive
7,COC(=O)C1=C(N)OC2=C(C(=O)CCC2)C1c1cccc(F)c1 (centres undefined),inconclusive: 14%
8,N[C@@H]1CC[C@@H](NC(=O)c2ccc3c(c2)ncn3CCO)C1,inactive
9,O=C1C2C3CCC(C3)C2C(=O)N1CN(Cc1ccccc1)CN1C(=O)C2C3CCC(C3)C2C1=O (centres undefined),inconclusive: 12%
10,CN(C)CCN(C)C(=O)[C@@H]1C[C@@H](NC(=O)c2cc3ccccc3s2)CN1,inactive
11,CC(=O)c1ccc2c(c1)C1c3ccccc3C2c2ccccc21,inconclusive: 18%
12,CCc1ccccc1N(C(C)=O)C1C=CS(=O)(=O)C1 (centres undefined),inconclusive: 12%
13,CCOc1cc(C2=NS(=O)(=O)c3ccccc3N2)cc(OCC)c1OCC,inactive
14,Cc1ccc2cc(C)c(-c3ccncc3)nc2c1,inactive
15,Cc1ccc(C(=O)Nc2cc(C)c3c(=O)oc4ccccc4c3n2)cc1,inconclusive: 17%
16,NC(=O)[C@H](Cc1ccc(O)cc1)NC(=O)C1=C[C@@H](NC(=O)c2cnccn2)[C@@H](O)[C@H](O)C1,active: 44%
17,COc1cccc(CC2(CO)CCCN(CCCC3CCCC3)C2)c1 (centres undefined),inactive
18,O=C(CSc1ncc(-c2ccc(Br)cc2)[nH]1)c1ccc([N+](=O)[O-])cc1,inconclusive: 21%
19,CCCC(=O)Nc1c2c(nn1C(C)(C)C)CSC2,inactive
20,O=C(O)[C@@H]1[C@H](C(=O)Nc2ccccc2F)[C@@H]2C=C[C@H]1C2,inconclusive: 13%
21,O=C(O)CCCN1C(=O)C2CCCCN2c2ccc(C(=O)N3CCCC3)cc21 (centres undefined),inconclusive: 25%
22,O=C(NC1CCCC1)C1CC1c1ccccc1 (centres undefined),inconclusive: 13%
23,COCc1ccc(CN2CCOc3ccc(C(C)(O)COc4ccccc4)cc3C2)o1 (centres undefined),inactive
24,O=c1/c(=C\c2ccc(Br)c([N+](=O)[O-])c2)sc2nc3ccccc3n12,inconclusive: 23%

row,SMILES,inhibition
1,CCN(CC)C(=O)c1cc2cc3ccc(OC)cc3nc2o1,inconclusive: 11%
2,C=Cc1cccc(-c2nccn2CCCO)c1,inconclusive: 10%
3,COc1ccc(Cl)cc1C(=O)Nc1ccc(C)c(-c2nc3ncccc3o2)c1,active: 35%
4,Cc1ccccc1N1CCN(c2ncccc2CNC(=O)C2COC(=O)N2)CC1 (centres undefined),inactive
5,O=C(NC1CCCCC1)c1cc(-c2ccc(Cl)cc2)on1,inconclusive: 18%
6,COc1ccc(C(=O)Nc2sc3c(c2C#N)CC(C)(C)NC3(C)C)cc1,inactive
7,COc1cccc(C(=O)Nc2c3c(nn2C(C)(C)C)CS(=O)C3)c1OC (centres undefined),inactive
8,COC(=O)[C@@H]1Cc2ncn(C)c2CN1S(=O)(=O)c1cccc(C(F)(F)F)c1,inconclusive: 10%
9,CC1=CC(=NOC(=O)c2ccc(I)cc2)C=C(C)C1=O,inactive
10,CCOC(=O)c1sc2nc(C)nc(N(CC)CC)c2c1C,inactive
11,COc1ccccc1CN1CCC(O)(c2cccc(C(F)(F)F)c2)CC1,inconclusive: 13%
12,Cc1nonc1C1CCCN1Cc1cnc(S(=O)(=O)C(C)C)n1Cc1ccccc1F (centres undefined),inactive
13,Cc1ncc(C(=O)N2CCC(O)(CN(C)C)C2)c(-c2ccccc2)n1 (centres undefined),inconclusive: 16%
14,C=C(C)CN(C)C(=O)C12CC3C[C@@](C)(C1)C[C@](C)(C3)C2,inactive
15,O=C(c1ccccc1-c1nc2ccccc2[nH]1)N1CCCCC1,inconclusive: 17%
16,CCOc1ccc(NC(=O)c2cc3c(=O)n4cccc(C)c4nc3n2C)cc1,inconclusive: 13%
17,O=C(c1ccccc1)N1CCN(Cc2ccc(-c3cncnc3)cc2)CC1,inconclusive: 11%
18,CCOc1ccc(NC2OC(=O)c3c2ccc(OC)c3OC)cc1 (centres undefined),inconclusive: 11%
19,O=C1CC(N2CCc3ccccc3C2)C(=O)N1c1ccc([N+](=O)[O-])cc1 (centres undefined),inactive
20,Cc1cn(S(=O)(=O)c2ccc(Cl)c(Cl)c2Cl)cn1,inconclusive: 28%
21,COc1ccc(-c2ccc3c(c2)C(=O)N2CC[C@H](NC(=O)CCC(=O)O)[C@H]2C(=O)N3)cc1,active: 46%
22,Cc1cccc(OCCN2CCCCC2CO)c1C (centres undefined),inconclusive: 18%
23,Cn1c(=O)[nH]c(=O)c2c1nc1oc(-c3ccc(Cl)cc3)cn12,inactive
24,Clc1ccc(C2=NN3COc4ccc(Cl)cc4C3C2)cc1 (centres undefined),inconclusive: 25%

# 6 entries from above, arranged by heavy-atom count, high to low.
row,SMILES,inhibition
12,Cc1nonc1C1CCCN1Cc1cnc(S(=O)(=O)C(C)C)n1Cc1ccccc1F (centres undefined),inactive
7,CCOC(=O)C1(CCCc2ccccc2)CCN(C(=O)/C=C/c2cnn(C)c2)CC1,inconclusive: 11%
16,COc1cccc(C(=O)NC(c2ccco2)c2cc(Cl)c3cccnc3c2O)c1 (centres undefined),inactive
24,O=C1NC(=O)/C(=C\c2cc(Br)ccc2OCc2ccc(F)cc2)S1,inconclusive: 20%
9,CC1=CC(=NOC(=O)c2ccc(I)cc2)C=C(C)C1=O,inactive
12,CCc1ccccc1N(C(C)=O)C1C=CS(=O)(=O)C1 (centres undefined),inconclusive: 12%

# Later entries.

row,SMILES,inhibition
1,Fc1ccccc1OCCOc1cccc2cccnc12,inactive
2,COc1cccc(C2Nc3ccc(C(=O)c4ccccc4)cc3NC3=C2C(=O)CC(C)(C)C3)c1 (centres undefined),inconclusive: 23%
3,O=C(O)C(Cc1ccccc1)NC(=O)C1CCCN1 (stereo not drawn) (H-Pro-Phe-OH; configuration not given here),inconclusive: 25%
4,O=C(Nc1ncc(Cc2cccc(C(F)(F)F)c2)s1)c1ccccc1[N+](=O)[O-],inconclusive: 16%
5,CCOC(=O)C1CCN(Cc2nc(-c3cccc(Br)c3)oc2C)CC1,inconclusive: 13%
6,CC(NC(=O)[C@H](CCS(C)(=O)=O)N1Cc2ccccc2C1=O)c1cccs1 (some centres undefined),inactive
7,Cc1ccc(S(=O)(=O)Nc2ccccc2C)cc1,inconclusive: 12%
8,Oc1ccc(-c2nc(-c3ccc(F)cc3)c(-c3ccncc3)[nH]2)cc1,inconclusive: 19%
9,CC(=O)OCCn1nc(C)c2ccccc2c1=O,inactive
10,Cc1ccc(C2(O)CCN(Cc3ccc(C#CCCO)cc3)CC2)nc1,inactive
11,O=C1CCCN2N=C(SCc3ccc(F)cc3)SC2=N1,inactive
12,COc1ccccc1S(=O)(=O)Cc1ccc(C(=O)NCc2cccs2)o1,inconclusive: 16%
13,CC(=O)O[C@H]1[C@H]2CCC[C@@H]1[C@@H](N1CCCCC1)CC2,inactive
14,CC(C)NC(=O)C[C@@H]1O[C@H](CNC(=O)Nc2ccc(F)cc2F)[C@@H](O)[C@H]1O,inconclusive: 12%
15,O=C1OC(c2ccccc2)=C/C1=C/N1CCCCC1,inconclusive: 20%
16,C=C(C)COc1ccc(C(=O)N2CC[C@H](O)C[C@@H]2C(=O)O)cc1,inactive
17,CCN1/C(=C/C(C)=O)Sc2ccccc21,inconclusive: 13%
18,COc1ccc(S(=O)(=O)N2C[C@@H]3C[C@H](C2)c2c(-c4cccc(C#N)c4)ccc(=O)n2C3)cc1,inconclusive: 19%
19,CCC1=C(c2ccc(OC)cc2)S(=O)(=O)N(CC(=O)NCc2ccc(Cl)cc2)C1=O,inconclusive: 12%
20,Cc1ccc(NC(=O)CSc2nnc(-c3ccc(N)cc3)n2C)c(C)c1,inactive
21,O=C(Cn1c(=O)n(-c2ccccc2)c(=O)c2sccc21)NCCC1=CCCCC1,inconclusive: 13%
22,OCC#Cc1csc(CN2CCN(c3nccc4ccccc34)CC2)c1,inconclusive: 11%
